# Experimental data published in publication doi:10.1101/211029.
# Amino acid sequences for entries named in this document (tags omitted).
# UniProt P18901: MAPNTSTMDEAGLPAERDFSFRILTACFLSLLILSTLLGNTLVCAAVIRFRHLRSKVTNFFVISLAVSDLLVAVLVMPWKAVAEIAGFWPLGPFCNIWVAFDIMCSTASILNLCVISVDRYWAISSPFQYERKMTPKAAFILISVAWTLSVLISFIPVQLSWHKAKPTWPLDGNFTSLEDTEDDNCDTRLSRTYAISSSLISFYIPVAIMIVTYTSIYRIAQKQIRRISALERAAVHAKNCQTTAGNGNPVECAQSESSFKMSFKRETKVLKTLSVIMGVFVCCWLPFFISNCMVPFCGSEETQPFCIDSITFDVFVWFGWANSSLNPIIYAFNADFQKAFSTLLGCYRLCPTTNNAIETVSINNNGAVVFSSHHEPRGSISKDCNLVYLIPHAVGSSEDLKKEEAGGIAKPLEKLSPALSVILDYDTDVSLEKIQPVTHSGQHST
# No constants are given. Whether binding was seen depends on the method and setting. In cells and extracts the contact can be indirect.
# Target: Dopamine D1 receptor (rat (endogenous in nucleus accumbens)) (UniProt P18901)
# Experiment: co-IP
binder,measurement,value
"gephyrin, an inhibitory synapse post-synaptic scaffold (protein, UniProt Q03555 1-768) MATEGMILTNHDHQIRVGVLTVSDSCFRNLAEDRSGINLKDLVQDPSLLGGTISAYKIVPDEIEEIKETLIDWCDEKELNLILTTGGTGFAPRDVTPEKFPTFPFCGLQKGATKEVIEREAPGMALAMLMGSLNVTPLGMLSRPVCGIRGKTLIINLPGSKKGSQECFQFILPALPHAIDLLRDAIVKVKEVHDELEDLPSPPPPLSPPPTTSPHKQTEDKGVQCEEEEEEKKDSGVASTEDSSSSHITAAALAAKIPDSIISRGVQVLPRDTASLSTTPSESPRAQATSRLSTASCPTPKQIRRPDESKGVASRVGSLKVQSRCSSKENILRASHSAVDITKVARRHRMSPFPLTSMDKAFITVLEMTPVLGTEIINYRDGMGRVLAQDVYAKDNLPPFPASVKDGYAVRAADGPGDRFIIGESQAGEQPTQTVMPGQVMRVTTGAPIPCGADAVVQVEDTELIRESDDGTEELEVRILVQARPGQDIRPIGHDIKRGECVLAKGTHMGPSEIGLLATVGVTEVEVNKFPVVAVMSTGNELLNPEDDLLPGKIRDSNRSTLLATIQEHGYPTINLGIVGDNPDDLLNALNEGISRADVIITSGGVSMGEKDYLKQVLDIDLHAQIHFGRVFMKPGLPTTFATLDIDGVRKIIFALPGNPVSAVVTCNLFVVPALRKMQGILDPRPTIIKARLSCDVKLDPRPEYHRCILTWHHQEPLPWAQSTGNQMSSRLMSMRSANGLLMLPPKTEQYVELHKGEVVDVMVIGRL",binding,no binding
